According to PubChem BioAssay AID1347423 (Functional Genomics Laboratory (NCATS/FGL), 2020):
About 210 (0.4%) of roughly 52,000 sequences were called active.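 The calls were made as follows: active = gene whose silencing raises cell survival under the drug, median off-target-corrected z-score across its silencing RNAs 2 or more; inactive = the rest.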 Some of the results follow.

Assay: Resistance to Poly (ADP-Ribose) Polymerase inhibitor: Gene Identification via Genome-wide siRNA Screen
Settings: mouse BRCA2 R2336H ES cells, olaparib, CellTiter-Glo viability; hits give high values
Outline: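 Genome-wide siRNA screen (3 siRNAs/gene, 20 nM) in mouse ES cells carrying hypomorphic BRCA2 R2336H; olaparib 500 nM added 48 h post-transfection, CellTiter-Glo viability 72 h later. Normalized to plate-median negative control; MAD z-scores, gene median, seed-adjusted.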

Sequence	z-score
CCCUGUGUUCACGUUUUACTT against Mrps33	inactive: 1.22
GGGAUCAAGGCUAGAAGAGTT against Stdp1	inactive: -0.854
GGACCAAGUACCAGACUGATT against Krt1-4	inactive: -1.58
CCCACAGUACAUUCUAAAATT against Arsb	inactive: -0.303
CCUAUCCCAAUGAGGAGAATT against Lman2l	inactive: -2.06
CCCUAACUCAAUGUACCAGTT against Slc27a1	inactive: -0.67
GGAAAGUAAGACCGUAAGUTT against A230072I16Rik	inactive: 0.545
GGAAGGAAUUCUUCAACCUTT against Hsd3b2	inactive: -0.882
GGAAAACAUUUAAACAGUGTT against 5830406J20Rik	inactive: -0.424
GCCAUGUGAUCGAAUCCAGTT against Cyln2	inactive: 0.467
GGGAUUGCUACAGAGACUCTT against Gprk6	inactive: 1.03
CGUGAAAGGCACAAAAAAGTT against Semcap2	inactive: 0.83
GCUGAUGUUAAAUUCGCAGTT against Serpinb3b	inactive: 1.35
CGAUCAAAGAACCUGAAAGTT against B830021E24Rik	inactive: -1.4
GGAACUAGAAGGUGUUUUATT against Ythdf1	inactive: 1.2
GGUUCUCCUUGUUUUGCUGTT against 9230107O10Rik	inactive: 0.382
GGAGGGUCUCUUUAAGUUCTT against AI325941	inactive: 0.197
GGUGAGAUUACUGAAAGAATT against Plod2	inactive: -1.53
GGUGCUGAGAUCGAGUAUGTT against D17Wsu104e	inactive: 0.87
GGAAGGACAUAUUAUCUUGTT against Mga	inactive: -1.93
GGUCUUUUUCUCUUUGCAUTT against Pcdh10	inactive: 0.257
GCAAAGGCCAAAUAUGAGGTT against Dbil5	inactive: -0.435
GGAGAAAAGGGUGCUGAAGTT against Csda	inactive: 1.21
CGUGAAUGACCUAGCUGAGTT against Spr	inactive: -0.204
CCGCCUCGUACAUGAUAUUTT against Mrgpra2	inactive: -0.527
GCAAAAAUUCAACAUCCUGTT against Fbxo4	inactive: 1.09

Fetched one by one from the list above:
Sequence	z-score
GGAACUAGAAGGUGUUUUATT against Ythdf1	inactive: 1.2
GGAAGGACAUAUUAUCUUGTT against Mga	inactive: -1.93
GGUCUUUUUCUCUUUGCAUTT against Pcdh10	inactive: 0.257
GGAGAAAAGGGUGCUGAAGTT against Csda	inactive: 1.21
GGAAAGUAAGACCGUAAGUTT against A230072I16Rik	inactive: 0.545

Additional records:

Sequence	z-score
AACAGUGCUUUGUGCCAUGTT against Mageb3	inactive: 1.93
CCGAGAAAUGCUAUGAAUGTT against Zfp105	inactive: 0.488
GGCAACGGUGAAACUAGACTT against Sh3bp5	inactive: 1.41
GCCAUGGGUCUCAGAAAGATT against Zxda	inactive: -2.17
GGAUACAAGAAACCUUAAGTT against 4632413K17Rik	inactive: -0.248
CGCAUUUCAUCGAAUGGAATT against Nlgn2	inactive: 1.23
GGCUAAACACAGAAAGGUCTT against B930008I02Rik	inactive: -0.646
CCUGUUUCGUAGAUUGUUUTT against Snrp116	inactive: -1.29
GAACAAAUGAGGUCCUCAGTT against Sprr2h	inactive: 0.541
GCAACGAUCUGAGAAAAUUTT against Pdzk6	inactive: -2.63
GGGAUUUCUUAUCCUGAAATT against BC036333	inactive: -1.31
GGCAGCACUAGGACACAUATT against 1810019A08Rik	inactive: 0.483
GGCUUACUUACCACAGAAUTT against Mlycd	inactive: 0.637
GCCAGGAAACGACAAUAAATT against Slc5a11	inactive: 0.0258
GCGGAGCGUAUGGAUAUGATT against 3000002G13Rik	inactive: 0.508
GGGAUUUCACCACAGACAGTT against Gtf2a1	inactive: 0.0824
GUGGCAAGAUGUGAGACUUTT against Rpl4	inactive: -1.65
GGAUGGAUUACUGAAAGUUTT against Wdr35	inactive: 0.0396
CCAAGUUCAUUCUUUUUGCTT against Cobll1	inactive: 1.4
GGUGCCUUUCAUUUUUAACTT against Lamp2	inactive: 0.427
GGAUCCUCUUGAUCAAGCUTT against 3100002B05Rik	inactive: -2.03
CCUAUAUGCCAAUCUUUCUTT against Rnf152	inactive: 0.476
GGAAAACACGAGUUUCCCUTT against Arrdc4	inactive: -0.208
GCCUUUGAUCUGAUGCACUTT against Adh5	inactive: -0.188
GGAAAUCGAGGUUACAAGUTT against 5830446M03Rik	inactive: -3.18
GGAGUUAACAAGAUGAGCGTT against Arhgap24	inactive: 1.34

Sequence	z-score
CCAUGCAGCAAAUCGAGUUTT against Klk5	inactive: -0.775
GGAUUAUGUCAAGGUCAAATT against Ntng2	inactive: 0.362
GGAGUUUUCAAUUUUGAUGTT against Il17rb	inactive: -0.296
GGCAGACAGAAGAUAUUUGTT against 4933437N03Rik	inactive: 0.35
GGCGCAUGCUGGAUAAACATT against D11Lgp2e	inactive: -1.33
GGAAGAUUUUUCAAAGGAUTT against Itgb6	active: 2.51
CCAGAACCCUAGACUUUGCTT against Wfdc6	inactive: -1.51
GCCGUGAAAUACAGCGUAATT against C730015A04Rik	inactive: -0.846
GGACAUGGUGUUGUGCUAUTT against Myt1l	inactive: 0.813
GCCCUAAUCUAUGGGACAUTT against AI839735	inactive: 0.301
GCUACCAUGAGAUUUCUAATT against Dido1	inactive: -1.38
GGAGCUCUACAUCAUAGACTT against Lhx1	inactive: -0.0389
GCCUAACAAUAGUGGAAUUTT against 1700060E18Rik	inactive: -2.22
GGAGCUAAAUGGCUCUGAUTT against Boc	inactive: 0.96
GGAGAAUGCUUUCAUUGUATT against 2810410L24Rik	inactive: -1.39
GGAACUGUUUCUCUUUCCUTT against Rad9	inactive: -1.17
AUUGGCAGUUAAGGACCGATT against Noto	inactive: 1.52
CCACUAACGAUGCAAAAAATT against Mep1a	inactive: 0.127
GGAACAAGAGAGGACAAGUTT against Papss2	inactive: -0.38
GGAUCUUACUAUCACCAGCTT against Foxf1a	inactive: 0.202
CCCAAUGUAUUCUACCUACTT against Cast	inactive: 1.09
GGAGCAAGUAUUUACAUUGTT against Psmd10	inactive: 0.0646
GGAUUCUUCAUCCCUAAAUTT against 4930470P17Rik	inactive: -0.289
CGCAGCGACCAGCUUUCAATT against Srebf2	inactive: 1.46
GCUGCUGUGACUUAGAUAATT against Cds2	inactive: -1.49
GCAAACAAGGUCCUAGUCUTT against 4930465P12Rik	inactive: 0.488

An excerpt of these results, bar-delimited:
Sequence | z-score
AUUGGCAGUUAAGGACCGATT against Noto | inactive: 1.52
CCACUAACGAUGCAAAAAATT against Mep1a | inactive: 0.127

(next part)

Sequence	z-score
GGUCUUCGACACCAUUAACTT against 2510001I10Rik	inactive: 0.94
GCAUUUCAGCAGAACAAUATT against Phldb1	inactive: -0.557
GCUGUGAGCGGUGUAAGAATT against Usp20	inactive: -2.54
GGAAAGAUCUCCUAAAAUUTT against Lrp6	inactive: 0.0588
GCGCUUACCGAACAACUGATT against Tmprss13	inactive: -0.00577
GGGAAGCACAAGGUUUAGUTT against Brca1	inactive: -0.121
CCCAUGCUAUCAAUCAUUUTT against Olfr308	inactive: 1.26
GGAAACACUGAAAAAGAAUTT against Casp2	inactive: -0.932
GGAAAACCUUUUCAGCUUCTT against Nelf	inactive: 0.62
GGCCCUAAUGCAUGUGUACTT against Gp9	inactive: 0.703
GGAAUUAUAAAAGACCACGTT against Kctd12b	inactive: 0.438
GGAAUGGUUAGAGUUCUUUTT against Ercc2	inactive: -2.39
GGAGAGUACAGACACUGAGTT against Masp2	inactive: 0.319
GGAAGAUUGCAUUUUGAGATT against Akap3	inactive: 0.395
CGUGGUGCCUUUGAAUCUGTT against 9530056K15Rik	inactive: -1.06
GGGCCUACAUUAUUCAGCATT against 2310032F03Rik	inactive: 0.865
GCAAGUAACUACCAGAGUATT against Gtl3	inactive: -1.4
GGAUGACGGUAAAAUGUUUTT against Hnrpdl	inactive: 0.494
GCAAUCAUUGAAUCCACUCTT against Spag9	inactive: -0.615
GCAGGCAAGGUAUACUUGATT against Cbfb	inactive: 0.137
GGUGUUGAUGCUGAAAACUTT against 5730405M13Rik	inactive: -0.453
GCUAAGCGGAAUGCACUCGTT against Cxcl5	inactive: -0.844
CCCUACAUGGAUGAGAACUTT against 1110007F05Rik	inactive: -0.857
GGAUUUCCUUGGUUCUUUUTT against Mylip	inactive: 0.151
GGCUUGAUUUCAACCUUGUTT against Atic	inactive: -0.0503
CGACAGAGUGAAAAUUAAGTT against D12Ertd771e	inactive: 0.39
